Data: patent US11267830B2, “Flow battery and components thereof” (University of Massachusetts, priority 2017, dated 2022)

Experiment: Symmetric flow cell galvanostatic cycling
Details: 0.01 M in DMSO, over 40 cycles, 20 mA, Nafion 212
Method: For the symmetric flow cell experiment, a flow cell with 3 layers of 250 μm carbon paper electrodes (AvCarb EP40A—they were received as thermally activated using a proprietary cycle) and 2 layers of Teflon gaskets were used in each half-side. Electrodes with an active area of 10 cm^2 were compressed by ˜33.3% in the assembled flow cell. Nafion 212 was selected as the membrane material. 25 mL of electrolyte (0.01 M of CVBH solution in DMSO) is used in each half-cell. This solution was prepared by oxidizing a 25 mL, 0.01M solution of CVBH from vanadium(iv) to vanadium(v) at 1.0 mA and mixing with a second 25 mL, 0.01 M solution of CVBH in the vanadium(iv) oxidation state (as synthesized). A peristaltic pump (Masterflex L/S Series) with silicon tubing (Masterflex, 1.6 mm inner diameter) drove the electrolyte through the flow cell at 80 mL min^−1.
On the strength of observations of high stability during static cell cycling, CVBH was investigated in a flow-battery architecture (FIG. 7A). Symmetric redox cycling of a 1:1 mixture of vanadium (iv/v) was carried out to probe the stability of the active species in a controlled manner. […] Measured UV-vis spectra were simulated using spectra of CVBH in the vanadium(iv) and vanadium(v) oxidation states as synthetic components to determine state of charge, as shown in FIG. 8. […]

O.O.O.O.O.O=C([O-])CN(O)CC(=O)[O-].O=C([O-])CN(O)CC(=O)[O-].[Ca].[V+4] [CVBH, Calcium(ii) vanadium(iv)bis-hydroxyiminodiacetate pentahydrate]
charging capacity retained: ~83% | discharging capacity retained: ~75%
